Results are given in words; binding and its absence hold for the method and conditions named. Binding seen in cells or lysates may run through a third protein. Some binding calls cover weakened binding; strength is not graded here.
What was measured:
[1] = target: Gαo[R209C] (construct of fig. S2, tag not shown) (human) (UniProt P09471); assay: co-IP + pull-down; N2a cells cotransfected with Gαo variants and the Golgi partners (fig. S2, B to G); immunoprecipitation with anti-GFP nanobody or glutathione pull-down, which one for which partner was not shown
[2] = target: Gαo[G203R] (construct of fig. S2, tag not shown) (human) (UniProt P09471); assay: as above
[3] = target: Gαo wild type (construct of fig. S2, tag not shown) (human) (UniProt P09471); assay: as above
[4] = target: Gαo[E246K] (construct of fig. S2, tag not shown) (human) (UniProt P09471); assay: as above
[5] = target: nanoluciferase-tagged Gαo[E246K] (plasmid Go1-CASE) (human) (UniProt P09471); assay: FRET or BRET; HEK293T cells transfected with Go1-CASE (NanoLuc-tagged Gαo, Gβ3, Venus-tagged Gγ9), with or without a GPCR; basal BRET ratio in PBS with 10 μM furimazine; GPCR agonists decreased the BRET
[6] = target: nanoluciferase-tagged Gαo[R209C] (plasmid Go1-CASE) (human) (UniProt P09471); assay: as above
[7] = target: nanoluciferase-tagged Gαo wild type (plasmid Go1-CASE) (human) (UniProt P09471); assay: as above
[8] = target: nanoluciferase-tagged Gαo[G203R] (plasmid Go1-CASE) (human) (UniProt P09471); assay: as above

Chains of the proteins cited; added tags and fusions are not shown. Lines headed by an entry give the natural chain unless they say otherwise; changes in a name come on top.
UniProt P09471: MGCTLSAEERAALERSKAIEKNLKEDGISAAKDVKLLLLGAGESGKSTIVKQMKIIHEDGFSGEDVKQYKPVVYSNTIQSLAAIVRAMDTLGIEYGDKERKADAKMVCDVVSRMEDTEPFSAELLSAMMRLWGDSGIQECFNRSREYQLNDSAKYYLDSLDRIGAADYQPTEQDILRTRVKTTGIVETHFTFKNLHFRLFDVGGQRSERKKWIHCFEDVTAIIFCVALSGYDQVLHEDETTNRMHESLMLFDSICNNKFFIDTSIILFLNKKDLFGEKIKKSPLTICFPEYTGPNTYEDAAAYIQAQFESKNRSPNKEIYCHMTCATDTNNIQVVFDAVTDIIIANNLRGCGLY
UniProt P84077: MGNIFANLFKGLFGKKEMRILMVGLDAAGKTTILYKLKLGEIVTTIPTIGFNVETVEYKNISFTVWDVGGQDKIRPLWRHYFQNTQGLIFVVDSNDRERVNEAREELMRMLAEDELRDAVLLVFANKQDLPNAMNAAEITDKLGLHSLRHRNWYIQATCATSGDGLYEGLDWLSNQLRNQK
UniProt P16520: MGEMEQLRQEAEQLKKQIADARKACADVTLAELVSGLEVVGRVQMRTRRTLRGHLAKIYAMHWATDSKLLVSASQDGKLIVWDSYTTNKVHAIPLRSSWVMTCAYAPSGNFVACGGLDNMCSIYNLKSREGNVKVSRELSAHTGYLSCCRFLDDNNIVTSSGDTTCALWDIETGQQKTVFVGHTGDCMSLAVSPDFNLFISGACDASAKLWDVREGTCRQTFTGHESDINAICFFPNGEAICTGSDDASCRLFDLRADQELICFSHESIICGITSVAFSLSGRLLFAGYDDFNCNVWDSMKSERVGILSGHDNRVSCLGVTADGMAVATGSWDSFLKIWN

Measured: binding

Arf1-mRFP (from UniProt P84077 1-181)
binds: [1] | [2] | [3] | [4]

Gβγ of the plasmid Go1-CASE (Gβ3 and Gγ9 with the Venus tag) (from UniProt P16520 1-340; O14610 1-69) (complex)
binds: [5] | [6] | [7] | [8]

From PMC9544338
